Results as given in patent US11279747.
Results are given in words; binding and its absence hold for the method and conditions named. Some binding calls cover weakened binding; strength is not graded here.

Chains of the proteins cited; added tags and fusions are not shown. Lines headed by an entry give the natural chain unless they say otherwise; changes in a name come on top.
UniProt P61769: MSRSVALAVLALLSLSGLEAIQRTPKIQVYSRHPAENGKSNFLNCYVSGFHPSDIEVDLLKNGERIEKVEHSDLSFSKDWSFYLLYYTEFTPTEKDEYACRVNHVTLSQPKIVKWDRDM

Biological target: T1, human PTPRJ (human) (UniProt Q12913)
T1 sequence (looked up): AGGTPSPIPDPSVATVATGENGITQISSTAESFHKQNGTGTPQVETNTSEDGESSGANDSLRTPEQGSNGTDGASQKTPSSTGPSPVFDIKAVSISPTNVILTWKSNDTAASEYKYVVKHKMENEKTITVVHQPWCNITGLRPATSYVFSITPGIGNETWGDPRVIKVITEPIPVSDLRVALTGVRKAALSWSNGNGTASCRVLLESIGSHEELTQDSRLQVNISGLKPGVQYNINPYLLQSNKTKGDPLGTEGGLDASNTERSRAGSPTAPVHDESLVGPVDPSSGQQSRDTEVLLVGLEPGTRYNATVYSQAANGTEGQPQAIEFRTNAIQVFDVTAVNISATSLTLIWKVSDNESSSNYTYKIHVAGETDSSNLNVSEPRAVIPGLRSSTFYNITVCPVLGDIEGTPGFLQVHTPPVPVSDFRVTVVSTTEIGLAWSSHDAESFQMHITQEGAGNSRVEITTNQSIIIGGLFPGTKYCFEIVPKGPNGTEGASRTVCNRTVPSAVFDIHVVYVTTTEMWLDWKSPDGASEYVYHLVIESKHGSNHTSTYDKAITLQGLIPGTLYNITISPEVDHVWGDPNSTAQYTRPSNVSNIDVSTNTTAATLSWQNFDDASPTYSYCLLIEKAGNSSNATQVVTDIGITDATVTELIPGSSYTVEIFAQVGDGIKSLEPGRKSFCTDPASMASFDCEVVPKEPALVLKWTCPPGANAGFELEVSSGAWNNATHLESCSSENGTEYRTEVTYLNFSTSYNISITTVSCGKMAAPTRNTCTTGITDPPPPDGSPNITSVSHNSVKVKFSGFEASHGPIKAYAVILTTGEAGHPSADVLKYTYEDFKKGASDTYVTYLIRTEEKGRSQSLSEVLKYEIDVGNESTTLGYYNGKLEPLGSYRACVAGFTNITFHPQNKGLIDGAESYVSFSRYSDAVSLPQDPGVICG
Test: ELISA, receptor coated at 10 µg/mL, HLA-β2m-Fc at 10 µg/mL, anti-human Fc-HRP

binding	Substance
binds	C08-β2m-Fc (from UniProt P61769 21-119) (Fc fusion)
binds	C12-β2m-Fc (from UniProt P61769 21-119) (Fc fusion)
